# Source: patent publication US20040249122A1, “Cationic, amphipathic beta-sheet peptides and uses thereof” (priority 2003, published 2004)
# Not every detail of the peptide structures is certain; ends, links or a residue may be inferred. Where a SMILES comes first, the peptide text is derived from it.
# Columns and labels:
# [1] = Peptide-induced leakage from calcein-loaded LUV; conditions: POPC (PC) LUV
# Method: Peptide-Induced Leakage from Calcein-Loaded LUV. The ability of the peptides to release calcein (MW 623) from LUV of varying lipid composition was compared. LUV were prepared as above, except that-the buffer consisted of 50 mM HEPES, 100 mM NaCl, 0.3 mM EDTA, 80 mM calcein, pH 7.4. Calcein-loaded vesicles were separated from free calcein by size-exclusion chromatography using a Sephadex G-50 column and calcein-free buffer. Calcein leakage was monitored using a Perkin-Elmer LS-500 luminescence spectrometer by measuring the time-dependent increase in fluorescence of calcein (excitation=490 nm, emission=520 nm). LUV containing 8 nmoles of lipid were added to 1.5 mL of buffer in a stirred cuvet at 25° C. An aliquot of peptide was added to achieve the desired lipid-to-peptide ratio (256 to 8). Complete leakage was determined by the addition of 20 μL of 10% Triton X-100. Each value represents at least nine different measurements using at least three different LUV preparations.
# [2] = test system: microorganisms; conditions: background statement; cited from earlier work
Compound,calcein leakage from LUV (in words) [1],minimum inhibitory concentration (MIC) against most microorganisms [2] [µg/mL]
"CC(C)C[C@H](NC(=O)CNC(=O)[C@H](C)NC(=O)[C@H](CC(C)C)NC(=O)[C@H](CCCCN)NC(=O)[C@H](CCCCN)NC(=O)[C@H](C)NC(=O)[C@H](CC(C)C)NC(=O)CNC(=O)[C@H](C)NC(=O)[C@H](CC(C)C)NC(=O)[C@H](CCCCN)NC(=O)[C@H](CCCCN)NC(=O)[C@H](C)NC(=O)[C@H](CC(C)C)NC(=O)CNC(=O)[C@H](C)NC(=O)[C@H](CC(C)C)NC(=O)[C@@H](N)CCCCN)C(=O)N[C@@H](C)C(=O)N[C@@H](CCCCN)C(N)=O [(KLAGLAK)3-NH2, KLAGLAKKLAGLAKKLAGLAK -NH2] (H-KLAGLAKKLAGLAKKLAGLAK-NH2)",not very effective,–
"CC[C@H](C)[C@H](NC(=O)CN)C(=O)NCC(=O)N[C@@H](CCCCN)C(=O)N[C@@H](Cc1ccccc1)C(=O)N[C@@H](CC(C)C)C(=O)N[C@@H](Cc1c[nH]cn1)C(=O)N[C@@H](CO)C(=O)N[C@@H](C)C(=O)N[C@@H](CCCCN)C(=O)N[C@@H](CCCCN)C(=O)N[C@@H](Cc1ccccc1)C(=O)NCC(=O)N[C@@H](CCCCN)C(=O)N[C@@H](C)C(=O)N[C@@H](Cc1ccccc1)C(=O)N[C@H](C(=O)NCC(=O)N[C@@H](CCC(=O)O)C(=O)N[C@H](C(=O)N[C@@H](CCSC)C(=O)N[C@@H](CC(N)=O)C(=O)N[C@@H](CO)C(N)=O)[C@@H](C)CC)C(C)C [Magainin 2-NH2, GIGKFLHSAKKFGKAFVGEIMNS -NH2, reference compound] (H-GIGKFLHSAKKFGKAFVGEIMNS-NH2)",–,256
